Measurements from patent publication WO2019024911A1.
No constants are given. Whether binding was seen depends on the method and setting. Some binding calls cover weakened binding; strength is not graded here. For some assays here: Tags and fused reporters may be left off the sequences shown.

Experiments:
[1] = biological target: T1, B7-H3 recombinant protein (human B7-H3 with huFc tag, h-B7H3-Fc) (human) (UniProt Q5ZPR3); experiment: ELISA of hybridoma supernatant on B7-H3 recombinant protein
T1 sequence (looked up): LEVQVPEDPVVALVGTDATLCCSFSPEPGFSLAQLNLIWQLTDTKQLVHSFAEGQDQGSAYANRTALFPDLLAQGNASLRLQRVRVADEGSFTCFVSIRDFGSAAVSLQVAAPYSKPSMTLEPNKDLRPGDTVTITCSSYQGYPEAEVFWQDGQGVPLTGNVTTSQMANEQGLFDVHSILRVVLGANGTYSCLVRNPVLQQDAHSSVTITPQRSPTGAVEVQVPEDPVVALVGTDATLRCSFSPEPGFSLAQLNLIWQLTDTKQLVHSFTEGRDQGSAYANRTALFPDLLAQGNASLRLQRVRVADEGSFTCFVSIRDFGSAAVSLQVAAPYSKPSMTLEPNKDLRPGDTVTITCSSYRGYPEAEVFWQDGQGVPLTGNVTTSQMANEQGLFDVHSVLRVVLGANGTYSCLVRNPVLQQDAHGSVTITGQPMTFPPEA

[2] = biological target: T2, human B7H3 on the cell surface (human) (UniProt Q5ZPR3); experiment: flow cytometry of hybridoma supernatant on CHO-S cells stably expressing B7-H3 against blank CHO-S cells
T2 sequence: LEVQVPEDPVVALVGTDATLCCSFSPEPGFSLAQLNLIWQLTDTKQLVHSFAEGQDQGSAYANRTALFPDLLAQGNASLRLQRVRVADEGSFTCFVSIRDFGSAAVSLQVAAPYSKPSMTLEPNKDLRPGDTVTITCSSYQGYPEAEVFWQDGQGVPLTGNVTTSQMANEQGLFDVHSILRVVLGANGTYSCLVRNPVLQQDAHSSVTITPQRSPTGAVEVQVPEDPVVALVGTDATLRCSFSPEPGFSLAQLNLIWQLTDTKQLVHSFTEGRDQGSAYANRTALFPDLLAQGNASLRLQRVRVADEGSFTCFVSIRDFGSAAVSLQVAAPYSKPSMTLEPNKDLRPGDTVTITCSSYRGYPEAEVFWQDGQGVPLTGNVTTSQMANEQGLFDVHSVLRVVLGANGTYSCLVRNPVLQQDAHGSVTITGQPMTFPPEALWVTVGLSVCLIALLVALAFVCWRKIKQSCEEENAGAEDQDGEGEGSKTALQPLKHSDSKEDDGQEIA

B1: murine monoclonal antibody m1704 (antibody, V domains shown)
VH: EVQLVESGGGLVKSGGSLKLSCAASGFTFSRYGMSWVRQTPEKRLEWVAAISSNGGSIYYPDTVKGRLTISRDNAKNTLYLQMISLRSEDTALYFCTRHYLLFEMDYWGRGTSVTVSS
VL: DIVMTQSQEFMSTTVGDRVYITCKASQNVNTAVAWYQQKPGQSPKLLIFSASNRYTGVPDRFTGSGSGTDFTLTISNVQSEDLAAYFCQQYSSSLTFGAGTKLELK
- binding [1]: binds
- binding [2]: binds
